Reference: PubChem BioAssay AID248 (DTP/NCI, 2004)
The list does not hold the whole screen: it is rich in T/C values a quarter to a half above the control, in often repeated tests (any T/C) and in doses without a T/C. Other doses and runs of a compound stand elsewhere. T/C: endpoint of the treated group in % of that of the vehicle group. Some entries give survivors of the animals treated and no T/C: the source files T/C as zero there, which appears to mark a toxic dose or a test without result, not a measured value. Some doses without a T/C left all or most animals alive at the check, yet need not have been tolerated: the source hardly ever lists a survival T/C far under the control, and the zero likely stands for such cases as well. Survivors were counted at the toxicity check, usually on the fifth day, unless a day is given; later deaths do not show. Schedules are NCI's codes, taken here to give the interval after Q, in days (D) or hours (H), and the number of doses after X. Some schedules carry Z or #; the key to these is not given. Where survival is the endpoint, the PubChem record calls one and a half times the control and up active, and a quarter to a half above the control has no call in these data; cut-offs in other NCI protocols can differ. Some entries were tested several times; the results are listed from low to high.

Test system: L1210 leukemia ip in BDF1 mice, survival T/C
Assay: NCI In Vivo Anticancer Drug Screen. Data for tumor model L1210 Leukemia (intraperitoneal) in B6D2F1 (BDF1) mice
Conditions: T/C endpoint: mean survival time, higher T/C = longer survival
[1] = dose: 75.0 mg/kg/injection, schedule: Q01DX001 (ip), vehicle: saline
[2] = dose: 150.0 mg/kg/injection, schedule: Q01DX001 (ip), vehicle: saline
[3] = dose: 300.0 mg/kg/injection, schedule: Q01DX001 (ip), vehicle: saline
[4] = dose: 400.0 mg/kg/injection, schedule: Q01DX001 (ip), vehicle: carboxymethylcellulose (CMC)
[5] = dose: 200.0 mg/kg/injection, schedule: Q04DX002 (ip), vehicle: Klucel (hydroxypropylcellulose) (HPC)
[6] = dose: 200.0 mg/kg/injection, schedule: Q01DX009 (ip), vehicle: saline
[7] = dose: 400.0 mg/kg/injection, schedule: Q01DX001 (ip), vehicle: other
[8] = dose: 200.0 mg/kg/injection, schedule: Q04DX003 (ip), vehicle: Klucel (hydroxypropylcellulose) (HPC)
[9] = dose: 400.0 mg/kg/injection, schedule: Q04DX003 (ip), vehicle: Klucel (hydroxypropylcellulose) (HPC)

With `CN=C(NC)c1ccc(NC(=O)Nc2ccc(NC(=O)Nc3ccc(C(=NC)NC)cc3)cc2)cc1` as the molecule, how does the T/C (dose: 13.0 mg/kg/injection, schedule: Q01DX Z (ip), vehicle: carboxymethylcellulose (CMC)) read?
Its T/C is 125 % of control.

And the T/C (dose: 13.3 mg/kg/injection, schedule: Q01DX Z (ip), vehicle: saline)?
The T/C was 125 and 131 % of control.

And the T/C (dose: 20.0 mg/kg/injection, schedule: Q01DX Z (ip), vehicle: carboxymethylcellulose (CMC))?
The T/C was 128 % of control.

What about the T/C (dose: 20.0 mg/kg/injection, schedule: Q01DX Z (ip), vehicle: saline) of the same molecule?
The T/C was 134 % of control.

And the T/C (dose: 30.0 mg/kg/injection, schedule: Q01DX Z (ip), vehicle: saline)?
Its T/C is 129 % of control.

And the survivor count (dose: 45.0 mg/kg/injection, schedule: Q01DX Z (ip), vehicle: carboxymethylcellulose (CMC))?
Its survivor count is 5 of 6.

How did the survivor count (dose: 20.0 mg/kg/injection, schedule: Q01DX001 (ip), vehicle: saline) turn out when `CCOP(=O)(OCC)Oc1ccc([N+](=O)[O-])c(CC)c1` was run?
The survivor count was 3 of 6.

And the survivor count (dose: 40.0 mg/kg/injection, schedule: Q01DX001 (ip), vehicle: saline)?
The survivor count was 0 of 6.

What about the survivor count [1] of the same molecule?
Its survivor count is 0 of 6.

What about the survivor count (dose: 80.0 mg/kg/injection, schedule: Q01DX001 (ip), vehicle: saline) of the same molecule?
The survivor count was 0 of 6.

And the survivor count [2]?
Its survivor count is 0 of 6.

What about the survivor count [3] of the same molecule?
The survivor count was 0 of 6.

How did the survivor count (dose: 200.0 mg/kg/injection, schedule: Q01DX001 (ip), vehicle: carboxymethylcellulose (CMC)) turn out when `Cc1ccc2[nH]c(=O)cc(C)c2c1` was run?
Its survivor count is 0 of 6.

And the survivor count [4]?
The survivor count was 0 of 6.

How did the survivor count [3] turn out when `COc1cc(C2N=C(N)N=C(N)N2c2ccc(S(N)(=O)=O)cc2)cc(OC)c1OC` (centres undefined) was run?
The survivor count was 0 of 6.

Which survivor count (dose: 100.0 mg/kg/injection, schedule: Q01DX009 (ip), vehicle: saline with Tween-80) does the source give for `O=C(CCc1ccc(O)cc1)N/N=C/c1ccc2c(c1)OCO2` here?
The survivor count was 6 of 6.

With `CN(Cc1ccccc1)C(=O)c1ccc(Cl)cc1` as the molecule, how does the survivor count [5] read?
Its survivor count is 3 of 3.

What does the source list for `O=CC(CO)C(C=O)n1ncc2ccccc21` (centres undefined)?
survivor count (dose: 100.0 mg/kg/injection, schedule: Q01DX005 (ip), vehicle: water): 0 of 3; survivor count (dose: 200.0 mg/kg/injection, schedule: Q01DX005 (ip), vehicle: water): 0 of 3

`CC(C)OCc1c(N)nc(=S)[nH]c1C(=O)O` was tested. Which survivor count (dose: 100.0 mg/kg/injection, schedule: Q01DX009 (ip), vehicle: saline) did it give?
Its survivor count is 2 of 6.

What about the survivor count [6] of the same molecule?
Its survivor count is 0 of 6.

What about the survivor count (dose: 200.0 mg/kg/injection, schedule: Q04DX003 (ip), vehicle: saline) of the same molecule?
The survivor count was 0 of 6.

And the survivor count (dose: 400.0 mg/kg/injection, schedule: Q04DX003 (ip), vehicle: saline)?
Its survivor count is 0 of 6.

With `CCCCNC(=O)c1ccccc1-c1ccccc1C(=O)NCCCC` as the molecule, how does the survivor count [7] read?
The survivor count was 2 of 4.

Which survivor count (dose: 25.0 mg/kg/injection, schedule: Q01DX009 (ip), vehicle: saline) does the source give for `CCCCn1cnc(=O)c2[nH]cnc21` here?
The survivor count was 6 of 6.

`COc1cc2c(cc1O)C(Cc1ccc(OC)c(OC)c1)N(C)CC2` (centres undefined) was tested. Which survivor count (dose: 300.0 mg/kg/injection, schedule: Q01DX001 (ip), vehicle: other) did it give?
Its survivor count is 0 of 6.

With `CCOC(=O)c1cc2c(=O)c(C(=O)OCC)c[nH]c2o1` as the molecule, how does the survivor count [5] read?
The survivor count was 0 of 3.

Which results are given for `CCOC(=O)CC(C)(C)NCc1ccccc1`?
survivor count [8]: 0 of 6; survivor count [9]: 0 of 6

With `O=C(O)c1cc([N+](=O)[O-])cc([N+](=O)[O-])c1O` as the molecule, how does the survivor count (dose: 400.0 mg/kg/injection, schedule: Q04DX002 (ip), vehicle: saline with Tween-80) read?
The survivor count was 0 of 3.

`CCCC#CCCCN1CCC2(CC1)C(=O)NCN2c1ccccc1` was tested. Which survivor count [8] did it give?
Its survivor count is 0 of 6.

And the survivor count [9]?
The survivor count was 0 of 6.

How did the survivor count (dose: 120.0 mg/kg/injection, schedule: Q01DX Z (ip), vehicle: saline) turn out when `CC(/C=N/NC(N)=O)=N\NC(N)=O` was run?
The survivor count was 5 of 6.

How did the survivor count [7] turn out when `Cn1c(=O)c2c(nc(C3CC3)n2C)n(C)c1=O` was run?
The survivor count was 1 of 4.

With `CCC(C)(OC(=O)c1ccc([N+](=O)[O-])cc1)C(C)C` (centres undefined) as the molecule, how does the survivor count (dose: 300.0 mg/kg/injection, schedule: Q04DX002 (ip), vehicle: saline with Tween-80) read?
Its survivor count is 3 of 3.

Which survivor count (dose: 10.0 mg/kg/injection, schedule: Q01DX001 (ip), vehicle: alcohol) does the source give for `CNC1=C(C)C(=O)C2=C(C1=O)C(COC(N)=O)C1(O)C3C(CN21)N3C` (centres undefined) here?
The survivor count was 5 of 6.

And the survivor count (dose: 23.0 mg/kg/injection, schedule: Q01DX001 (ip), vehicle: acetone)?
The survivor count was 1 of 6.

What about the survivor count (dose: 35.0 mg/kg/injection, schedule: Q01DX001 (ip), vehicle: acetone) of the same molecule?
Its survivor count is 1 of 6.

What about the survivor count (dose: 50.0 mg/kg/injection, schedule: Q01DX001 (ip), vehicle: acetone) of the same molecule?
The survivor count was 1 of 6.

For `O=C(NNc1ccccc1)Nc1ccccc1`, which survivor count (dose: 200.0 mg/kg/injection, schedule: Q01DX009 (ip), vehicle: Klucel (hydroxypropylcellulose) (HPC)) is on record?
The survivor count was 6 of 6.

And the survivor count (dose: 400.0 mg/kg/injection, schedule: Q01DX009 (ip), vehicle: Klucel (hydroxypropylcellulose) (HPC))?
Its survivor count is 1 of 6.

How did the survivor count (dose: 30.0 mg/kg/injection, schedule: Q01DX001 (ip), vehicle: saline) turn out when `Cc1ccc([P+](Cc2ccccc2)(c2ccccc2)c2ccc(C)cc2)cc1` was run?
The survivor count was 2 of 6.

And the survivor count (dose: 60.0 mg/kg/injection, schedule: Q01DX001 (ip), vehicle: saline)?
The survivor count was 0 of 6.

And the survivor count [1]?
Its survivor count is 0 of 6.

And the survivor count [2]?
The survivor count was 0 of 6.

What about the survivor count [3] of the same molecule?
Its survivor count is 0 of 6.

With `Cc1ccc(NC(=O)CS)cc1` as the molecule, how does the survivor count (dose: 400.0 mg/kg/injection, schedule: Q04DX003 (ip), vehicle: saline with Tween-80) read?
Its survivor count is 0 of 6.

Which survivor count (dose: 200.0 mg/kg/injection, schedule: Q04DX003 (ip), vehicle: acetone) does the source give for `Cc1ncc(CO)c(C2NOCc3ccc(Cl)cc32)c1O` (centres undefined) here?
The survivor count was 5 of 6.

What about the survivor count (dose: 400.0 mg/kg/injection, schedule: Q04DX003 (ip), vehicle: acetone) of the same molecule?
The survivor count was 0 of 6.

`O=C1CC(=O)N(Cc2ccccc2)C(=O)N1` was tested. Which survivor count [4] did it give?
The survivor count was 4 of 4.

`CCc1c(Cl)c(C)c(Cl)c(O)c1Cl` was tested. Which survivor count (dose: 400.0 mg/kg/injection, schedule: Q04DX003 (ip), vehicle: other) did it give?
Its survivor count is 2 of 3.

How did the T/C [6] turn out when `NCCc1cc(O)c(O)c(O)c1` was run?
The T/C was 125 % of control.

What about the T/C (dose: 400.0 mg/kg/injection, schedule: Q01DX009 (ip), vehicle: saline) of the same molecule?
The T/C was 147 % of control.

With `O=C(OC1COC(OC(=O)c2ccccc2)C(OC(=O)c2ccccc2)C1OC(=O)c1ccccc1)c1ccccc1` (centres undefined) as the molecule, how does the survivor count (dose: 200.0 mg/kg/injection, schedule: Q01DX001 (ip), vehicle: saline) read?
The survivor count was 6 of 6.

With `O=[N+]([O-])C1CCCCC1O` (centres undefined) as the molecule, how does the survivor count [1] read?
Its survivor count is 2 of 6.

And the survivor count [2]?
Its survivor count is 0 of 6.

And the survivor count [3]?
Its survivor count is 0 of 6.

`CC(C)(C)c1ccc(O)cc1` was tested. Which survivor count (dose: 200.0 mg/kg/injection, schedule: Q01DX009 (ip), vehicle: saline with Tween-80) did it give?
The survivor count was 2 of 6.

What about the survivor count (dose: 400.0 mg/kg/injection, schedule: Q01DX009 (ip), vehicle: saline with Tween-80) of the same molecule?
Its survivor count is 0 of 6.
